Some of the results follow.

Chains of the proteins cited; added tags and fusions are not shown. Lines headed by an entry give the natural chain unless they say otherwise; changes in a name come on top.
UniProt Q9H0C2: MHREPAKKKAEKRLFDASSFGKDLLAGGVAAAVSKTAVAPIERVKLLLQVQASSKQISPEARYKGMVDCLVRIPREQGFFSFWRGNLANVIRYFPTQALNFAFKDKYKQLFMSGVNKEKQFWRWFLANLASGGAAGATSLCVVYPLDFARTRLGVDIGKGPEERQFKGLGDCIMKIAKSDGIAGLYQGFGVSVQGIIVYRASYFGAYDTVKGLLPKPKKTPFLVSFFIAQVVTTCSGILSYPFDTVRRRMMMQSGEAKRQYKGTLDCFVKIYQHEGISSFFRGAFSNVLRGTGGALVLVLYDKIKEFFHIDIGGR
UniProt P30825: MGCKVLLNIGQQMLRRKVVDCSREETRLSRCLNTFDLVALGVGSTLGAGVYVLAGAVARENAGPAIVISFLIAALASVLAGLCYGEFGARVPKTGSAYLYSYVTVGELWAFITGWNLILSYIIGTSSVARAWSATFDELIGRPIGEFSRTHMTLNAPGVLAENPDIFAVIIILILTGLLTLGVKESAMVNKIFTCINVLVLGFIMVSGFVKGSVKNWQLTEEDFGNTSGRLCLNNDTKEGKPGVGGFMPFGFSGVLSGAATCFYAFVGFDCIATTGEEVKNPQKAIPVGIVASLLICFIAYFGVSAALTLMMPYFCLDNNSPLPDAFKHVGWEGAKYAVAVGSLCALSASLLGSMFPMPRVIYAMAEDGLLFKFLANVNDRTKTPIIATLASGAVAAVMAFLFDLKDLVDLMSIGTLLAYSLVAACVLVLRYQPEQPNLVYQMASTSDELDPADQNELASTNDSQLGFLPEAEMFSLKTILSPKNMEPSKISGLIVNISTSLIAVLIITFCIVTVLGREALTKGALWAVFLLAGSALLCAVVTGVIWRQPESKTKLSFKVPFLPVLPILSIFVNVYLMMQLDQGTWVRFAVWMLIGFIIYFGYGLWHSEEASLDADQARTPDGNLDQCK
UniProt O43772: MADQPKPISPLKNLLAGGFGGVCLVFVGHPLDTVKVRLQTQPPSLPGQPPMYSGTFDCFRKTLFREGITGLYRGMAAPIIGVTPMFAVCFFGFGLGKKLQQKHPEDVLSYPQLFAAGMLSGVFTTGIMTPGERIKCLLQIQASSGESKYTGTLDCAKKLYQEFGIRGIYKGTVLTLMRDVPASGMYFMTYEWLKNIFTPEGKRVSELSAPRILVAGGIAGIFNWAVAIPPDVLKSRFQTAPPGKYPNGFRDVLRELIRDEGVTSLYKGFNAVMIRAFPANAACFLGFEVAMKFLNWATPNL
UniProt Q6XR72: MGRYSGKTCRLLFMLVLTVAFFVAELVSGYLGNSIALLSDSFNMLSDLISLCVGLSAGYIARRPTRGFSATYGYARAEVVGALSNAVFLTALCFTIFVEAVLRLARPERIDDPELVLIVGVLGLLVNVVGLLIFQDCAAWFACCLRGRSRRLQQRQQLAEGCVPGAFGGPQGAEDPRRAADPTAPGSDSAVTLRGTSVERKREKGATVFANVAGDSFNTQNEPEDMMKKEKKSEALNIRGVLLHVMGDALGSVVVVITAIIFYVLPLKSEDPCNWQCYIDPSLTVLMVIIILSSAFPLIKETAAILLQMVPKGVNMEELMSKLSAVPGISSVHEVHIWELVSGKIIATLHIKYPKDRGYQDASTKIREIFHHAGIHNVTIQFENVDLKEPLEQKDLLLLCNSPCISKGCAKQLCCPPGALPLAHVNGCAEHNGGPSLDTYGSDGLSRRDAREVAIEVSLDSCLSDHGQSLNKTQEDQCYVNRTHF
UniProt Q9BRY0: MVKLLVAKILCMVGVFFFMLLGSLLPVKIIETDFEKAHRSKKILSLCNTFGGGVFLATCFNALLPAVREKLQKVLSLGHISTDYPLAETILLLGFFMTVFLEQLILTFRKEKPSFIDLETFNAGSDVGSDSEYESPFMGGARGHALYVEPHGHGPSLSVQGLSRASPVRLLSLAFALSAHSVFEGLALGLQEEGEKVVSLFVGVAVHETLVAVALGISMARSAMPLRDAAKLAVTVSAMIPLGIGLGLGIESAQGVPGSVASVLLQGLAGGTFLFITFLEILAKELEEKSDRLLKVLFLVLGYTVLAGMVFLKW
UniProt Q96AG3: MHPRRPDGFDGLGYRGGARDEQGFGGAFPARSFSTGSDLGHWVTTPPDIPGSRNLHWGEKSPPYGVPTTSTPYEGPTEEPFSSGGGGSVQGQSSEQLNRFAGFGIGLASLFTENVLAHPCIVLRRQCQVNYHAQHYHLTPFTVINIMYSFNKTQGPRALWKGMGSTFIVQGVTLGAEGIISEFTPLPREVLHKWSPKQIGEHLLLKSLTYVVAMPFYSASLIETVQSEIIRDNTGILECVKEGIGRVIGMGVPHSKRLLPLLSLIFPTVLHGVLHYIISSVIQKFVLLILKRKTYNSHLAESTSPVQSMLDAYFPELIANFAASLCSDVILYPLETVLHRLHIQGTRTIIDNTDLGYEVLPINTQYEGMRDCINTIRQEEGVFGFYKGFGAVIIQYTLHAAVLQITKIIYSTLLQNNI
UniProt Q9H2G2: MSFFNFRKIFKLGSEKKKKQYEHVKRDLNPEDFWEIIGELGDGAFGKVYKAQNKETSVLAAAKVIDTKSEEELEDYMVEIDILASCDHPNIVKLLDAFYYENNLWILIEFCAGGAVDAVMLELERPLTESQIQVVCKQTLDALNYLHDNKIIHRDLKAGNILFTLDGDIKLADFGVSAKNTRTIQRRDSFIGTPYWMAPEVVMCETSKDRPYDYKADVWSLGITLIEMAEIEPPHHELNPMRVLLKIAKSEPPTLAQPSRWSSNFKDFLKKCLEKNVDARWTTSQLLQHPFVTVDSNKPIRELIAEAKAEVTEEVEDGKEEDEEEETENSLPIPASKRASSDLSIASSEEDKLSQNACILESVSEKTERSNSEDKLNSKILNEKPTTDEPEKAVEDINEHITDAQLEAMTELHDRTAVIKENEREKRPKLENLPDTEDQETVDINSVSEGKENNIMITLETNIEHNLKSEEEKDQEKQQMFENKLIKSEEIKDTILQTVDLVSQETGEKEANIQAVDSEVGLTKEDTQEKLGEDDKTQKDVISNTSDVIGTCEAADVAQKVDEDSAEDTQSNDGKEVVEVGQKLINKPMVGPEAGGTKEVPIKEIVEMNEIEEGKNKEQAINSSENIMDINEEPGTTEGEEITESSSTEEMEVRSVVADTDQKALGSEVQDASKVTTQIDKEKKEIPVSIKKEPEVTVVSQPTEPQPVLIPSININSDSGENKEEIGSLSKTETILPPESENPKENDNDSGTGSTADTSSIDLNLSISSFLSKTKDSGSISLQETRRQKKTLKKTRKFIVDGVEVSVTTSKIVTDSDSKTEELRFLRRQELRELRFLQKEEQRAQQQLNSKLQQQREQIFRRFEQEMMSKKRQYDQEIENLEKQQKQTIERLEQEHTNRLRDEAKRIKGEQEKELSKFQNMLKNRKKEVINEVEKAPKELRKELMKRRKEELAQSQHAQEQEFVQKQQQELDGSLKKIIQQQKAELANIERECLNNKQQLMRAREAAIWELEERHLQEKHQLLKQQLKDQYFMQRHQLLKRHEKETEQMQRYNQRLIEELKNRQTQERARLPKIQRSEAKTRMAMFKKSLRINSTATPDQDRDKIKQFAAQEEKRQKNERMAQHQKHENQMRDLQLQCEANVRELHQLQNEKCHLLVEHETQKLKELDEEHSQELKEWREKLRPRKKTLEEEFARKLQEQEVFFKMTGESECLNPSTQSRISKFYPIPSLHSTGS
UniProt O75387: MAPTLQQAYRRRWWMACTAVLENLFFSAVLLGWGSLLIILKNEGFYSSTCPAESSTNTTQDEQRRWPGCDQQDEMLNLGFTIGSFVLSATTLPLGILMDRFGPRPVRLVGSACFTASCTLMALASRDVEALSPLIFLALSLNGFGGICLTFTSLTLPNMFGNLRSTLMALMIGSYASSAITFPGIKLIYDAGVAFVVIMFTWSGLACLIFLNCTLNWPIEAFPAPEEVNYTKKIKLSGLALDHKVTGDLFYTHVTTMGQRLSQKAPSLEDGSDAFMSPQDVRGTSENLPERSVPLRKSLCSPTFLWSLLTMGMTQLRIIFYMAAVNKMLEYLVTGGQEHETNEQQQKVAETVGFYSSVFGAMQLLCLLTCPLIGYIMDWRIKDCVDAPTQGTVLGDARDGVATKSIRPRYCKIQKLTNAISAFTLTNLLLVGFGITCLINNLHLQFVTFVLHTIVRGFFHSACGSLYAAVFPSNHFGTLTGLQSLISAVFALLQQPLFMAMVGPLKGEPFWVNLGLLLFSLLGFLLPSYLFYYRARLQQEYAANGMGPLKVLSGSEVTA
UniProt P12235: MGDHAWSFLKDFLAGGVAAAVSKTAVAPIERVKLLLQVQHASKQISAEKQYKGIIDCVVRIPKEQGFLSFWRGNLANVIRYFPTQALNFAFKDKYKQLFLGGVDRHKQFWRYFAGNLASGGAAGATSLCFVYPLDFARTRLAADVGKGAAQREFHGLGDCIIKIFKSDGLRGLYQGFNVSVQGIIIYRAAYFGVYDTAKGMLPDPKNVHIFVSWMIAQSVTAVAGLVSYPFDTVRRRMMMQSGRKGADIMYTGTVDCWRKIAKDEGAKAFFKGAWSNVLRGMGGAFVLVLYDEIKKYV
UniProt Q9BXS9: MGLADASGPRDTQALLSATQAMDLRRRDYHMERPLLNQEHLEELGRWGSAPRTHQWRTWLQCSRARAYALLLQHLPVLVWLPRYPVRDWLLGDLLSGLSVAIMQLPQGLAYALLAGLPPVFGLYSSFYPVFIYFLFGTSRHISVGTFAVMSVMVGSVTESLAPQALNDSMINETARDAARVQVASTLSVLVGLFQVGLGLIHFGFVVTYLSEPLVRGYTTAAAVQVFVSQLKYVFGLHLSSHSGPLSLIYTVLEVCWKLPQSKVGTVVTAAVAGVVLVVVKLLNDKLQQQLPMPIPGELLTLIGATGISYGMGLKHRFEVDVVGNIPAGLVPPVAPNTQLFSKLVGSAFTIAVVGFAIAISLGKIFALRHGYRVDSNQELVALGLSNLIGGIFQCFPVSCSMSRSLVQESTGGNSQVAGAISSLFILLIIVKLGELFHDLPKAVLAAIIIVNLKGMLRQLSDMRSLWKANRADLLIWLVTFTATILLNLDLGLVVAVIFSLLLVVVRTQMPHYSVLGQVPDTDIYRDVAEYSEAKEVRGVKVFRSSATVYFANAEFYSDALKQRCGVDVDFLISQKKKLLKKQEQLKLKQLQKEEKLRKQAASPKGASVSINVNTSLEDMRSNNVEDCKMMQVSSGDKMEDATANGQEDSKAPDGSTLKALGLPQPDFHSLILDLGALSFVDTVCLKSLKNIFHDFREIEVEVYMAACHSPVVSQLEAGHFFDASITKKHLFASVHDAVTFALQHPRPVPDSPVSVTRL
UniProt Q86VD7: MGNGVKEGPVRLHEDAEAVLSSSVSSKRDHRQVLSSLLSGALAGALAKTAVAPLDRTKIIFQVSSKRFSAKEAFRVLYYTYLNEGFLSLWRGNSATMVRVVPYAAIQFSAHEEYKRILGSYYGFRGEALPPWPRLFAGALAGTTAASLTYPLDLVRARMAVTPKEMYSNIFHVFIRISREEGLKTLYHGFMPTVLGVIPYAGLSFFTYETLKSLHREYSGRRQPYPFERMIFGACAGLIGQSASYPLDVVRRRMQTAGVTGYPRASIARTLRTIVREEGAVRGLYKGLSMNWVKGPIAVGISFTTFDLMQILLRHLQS
UniProt Q9BQT8: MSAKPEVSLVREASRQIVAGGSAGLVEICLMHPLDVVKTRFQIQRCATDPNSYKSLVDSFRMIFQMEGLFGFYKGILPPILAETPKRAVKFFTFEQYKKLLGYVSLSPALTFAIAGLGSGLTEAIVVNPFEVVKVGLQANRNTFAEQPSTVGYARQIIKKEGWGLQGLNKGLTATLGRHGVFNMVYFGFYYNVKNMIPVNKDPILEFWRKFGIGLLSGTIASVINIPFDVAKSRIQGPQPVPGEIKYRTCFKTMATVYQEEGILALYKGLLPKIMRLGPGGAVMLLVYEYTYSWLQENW
UniProt P48029: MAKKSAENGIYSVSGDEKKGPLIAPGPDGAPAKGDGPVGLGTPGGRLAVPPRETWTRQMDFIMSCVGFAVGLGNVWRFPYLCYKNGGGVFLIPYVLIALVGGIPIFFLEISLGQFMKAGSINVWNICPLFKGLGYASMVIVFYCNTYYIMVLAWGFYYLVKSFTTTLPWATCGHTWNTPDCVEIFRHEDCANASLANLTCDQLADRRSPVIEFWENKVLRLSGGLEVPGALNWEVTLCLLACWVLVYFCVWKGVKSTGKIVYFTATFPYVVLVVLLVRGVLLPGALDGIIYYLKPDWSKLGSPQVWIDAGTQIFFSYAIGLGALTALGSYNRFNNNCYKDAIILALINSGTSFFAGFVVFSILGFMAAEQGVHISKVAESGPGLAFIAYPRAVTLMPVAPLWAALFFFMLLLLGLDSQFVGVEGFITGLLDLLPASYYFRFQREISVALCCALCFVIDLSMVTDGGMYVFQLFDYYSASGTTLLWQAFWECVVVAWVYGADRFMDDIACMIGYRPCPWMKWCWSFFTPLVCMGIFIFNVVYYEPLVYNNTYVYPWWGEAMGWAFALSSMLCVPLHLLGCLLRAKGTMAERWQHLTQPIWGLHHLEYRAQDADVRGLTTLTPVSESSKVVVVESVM

Compound in this test: CCn1cc(-c2ccnc3[nH]c(-c4cccc(CN(C)C)c4)cc23)c(-c2ccc(NC(=O)N(C)C)cc2)n1
Briefly: log2 fold change, soluble protein after heating vs DMSO (PISA); higher = thermal stabilisation; K562 lysate, 10 uM; active = over 0.2 and 3.5 SD of the protein, either way, in both replicates (recomputed). Put shortly:
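Thermal stability, expressed as log-two fold change relative to solvent controls, is given from duplicates. Crude K562 extract in PBS pH 7.4 with 1 mM MgCl2, at 1 mg/mL protein, was treated with 10 μM compound for 30 min and heated in aliquots for 3 min across 48°C-58°C. After pooling, adjustment to 0.5% NP-40 at 4°C and centrifugation at 21,000xg for 90 min, supernatant protein was measured by TMTpro 16plex LC-MS/MS with channel sums equalised.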
For the target SLC9A6 isoform 2 (UniProt Q92581), the log2 fold change was inactive: 0.029.
For the target SLC25A25 isoform 3 (UniProt Q6KCM7), the log2 fold change is inactive: -0.012.
On to SLC38A1 (UniProt Q9H2H9), for which the log2 fold change was active: -0.269.
SLC25A31 (UniProt Q9H0C2): the log2 fold change is inactive: -0.124.
As to SLC25A14 isoform 3 (UniProt O95258), the log2 fold change is inactive: -0.162.
SLC38A2 (UniProt Q96QD8): the log2 fold change was inactive: -0.078.
Next, SLC7A1 (UniProt P30825): inactive: 0; SLC25A20 (UniProt O43772): inactive: -0.066.
For SLC33A1 (UniProt O00400), the log2 fold change was inactive: -0.066.
Consider SMAP2 (UniProt Q8WU79), for which the log2 fold change is inactive: 0.043.
Next, SLC30A10 (UniProt Q6XR72): inactive: -0.079; SLC35F6 (UniProt Q8N357): inactive: 0; SLC39A3 (UniProt Q9BRY0): inactive: -0.096.
For the target SLC35B2 (UniProt Q8TB61), the log2 fold change is inactive: -0.011.
With SLC25A51 (UniProt Q9H1U9) the figure was inactive: -0.01; with SLC25A6 (UniProt P12236), inactive: -0.113; with SLC25A15 (UniProt Q9Y619), inactive: -0.084.
Consider SLC25A37 (UniProt Q9NYZ2), for which the log2 fold change was inactive: -0.038.
With SLC9A1 (UniProt P19634) the figure was inactive: -0.012.
As for SLC35A4 (UniProt L0R6Q1), the log2 fold change was inactive: -0.225.
With SLC25A38 (UniProt Q96DW6) the figure was inactive: -0.055.
For SLC25A46 (UniProt Q96AG3), the log2 fold change was inactive: -0.014.
Consider SLC39A14 (UniProt Q15043), for which the log2 fold change was inactive: 0.052.
With SLK isoform 2 (UniProt Q9H2G2) the figure was inactive: -0.094; with SLC43A1 (UniProt O75387), inactive: -0.008.
With SLC25A22 (UniProt Q9H936) the figure was inactive: -0.01; with SLC25A4 (UniProt P12235), inactive: -0.006.
As to SLC26A6 (UniProt Q9BXS9), the log2 fold change was inactive: -0.095.
For SLC25A11 (UniProt Q02978), the log2 fold change is inactive: -0.127.
Consider SLC25A42 (UniProt Q86VD7), for which the log2 fold change was inactive: -0.014.
With SLC27A2 (UniProt O14975) the figure was inactive: -0.024.
With SLC29A1 isoform 2 (UniProt Q99808) the figure was inactive: 0.073; with SMAP1 isoform 2 (UniProt Q8IYB5), inactive: 0.043; with SLC7A2 isoform 3 (UniProt P52569), inactive: -0.037.
As for SLC25A26 (UniProt Q70HW3), the log2 fold change was inactive: -0.135.
Next, SLC30A7 (UniProt Q8NEW0): inactive: -0.083.
With SLC25A21 (UniProt Q9BQT8) the figure was inactive: -0.104.
As to SLC44A2 (UniProt Q8IWA5), the log2 fold change is inactive: -0.091.
With SLC6A8 isoform 2 (UniProt P48029) the figure was inactive: 0.09.
